Experimental findings from publication doi:10.64898/2025.12.08.692925 are described below.

The test addresses T1, Tim23 fused to TurboID-V5 (S. cerevisiae) (UniProt P32897).
T1 sequence: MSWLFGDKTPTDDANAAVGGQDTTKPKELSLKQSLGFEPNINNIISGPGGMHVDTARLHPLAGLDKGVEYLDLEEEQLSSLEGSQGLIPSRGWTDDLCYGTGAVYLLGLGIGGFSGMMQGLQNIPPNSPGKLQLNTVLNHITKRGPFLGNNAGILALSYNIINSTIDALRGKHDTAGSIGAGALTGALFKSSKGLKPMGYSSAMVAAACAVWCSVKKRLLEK
Briefly: proximity labelling.

These are yes or no findings as the source states them, for the method shown. In cells and extracts the contact can be indirect. Here binding means that the protein was enriched with, or labelled near, the bait; the list need not be complete. Sequences can lack the tags named with a protein.

B1: Sfc1, endogenous (protein, UniProt P33303 1-322)
chain: MSQKKKASHPAINLMAGGTAGLFEALCCHPLDTIKVRMQIYRRVAGIEHVKPPGFIKTGRTIYQKEGFLALYKGLGAVVIGIIPKMAIRFSSYEFYRTLLVNKESGIVSTGNTFVAGVGAGITEAVLVVNPMEVVKIRLQAQHLTPSEPNAGPKYNNAIHAAYTIVKEEGVSALYRGVSLTAARQATNQGANFTVYSKLKEFLQNYHQMDVLPSWETSCIGLISGAIGPFSNAPLDTIKTRLQKDKSISLEKQSGMKKIITIGAQLLKEEGFRALYKGITPRVMRVAPGQAVTFTVYEYVREHLENLGIFKKNDTPKPKPLK
Take B1: the binding entry is listed as “binds”.
